# PubChem BioAssay AID504467 (National Center for Advancing Translational Sciences (NCATS), 2011)
# The whole screen tested about 330,000 compounds, of which about 7,700 (2.3%) were called active. Inconclusive means that the source gave no clear call. Such entries were picked first, then a sample of the others. The call rests on the fitted dose curve; in most records, active means well fitted inhibition curve with a large enough effect; inconclusive means small, poorly fitted or top-dose-only effect, or effect the other way; inactive means flat fitted curve, though single readings scatter. Potencies of inconclusive entries are doubtful fits and often do not repeat.
# Experiment: qHTS screen for small molecules that inhibit ELG1-dependent DNA repair in human embryonic kidney (HEK293T) cells expressing luciferase-tagged ELG1; further: nearly all actives have a fitted effect of over 55% in size
# Conditions: HEK293T ELG1-luciferase reporter, luminescence, 16 h, DNA damage induced by 5-fluorouridine; series mostly up to 46.1 µM
# Outline: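 HEK293T cells expressing luciferase-tagged ELG1 (2,000/well) received 5-Fluorouridine plus compound or DMSO for 16 hr at 37 °C. Luciferase was read by ONE-Glo luminescence after 30 min at room temperature.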
# Potency means the concentration at half of the fitted maximal effect.
row,SMILES,Potency
1,Cc1cc(C(=O)OCC(=O)Nc2cc(S(=O)(=O)N(C)C)ccc2C)c(C)o1,"inconclusive: 23.1 µM [inhibitor, single point]"
2,CCOC(=O)c1c(CC(C)C)csc1NC=O,"inconclusive: 1.64 µM [activator, partial curve, poor fit]"
3,Nc1cc(Cl)ccc1N1CCCC1,"inconclusive: 16.4 µM [inhibitor, partial curve]"
4,Cn1cc(C(=O)c2ccccc2)cc1-c1nc2ccccc2n1C,inactive
5,CC(Oc1ccc(Cl)cc1Cl)C(=O)Nc1ccc(O)cc1 (stereo not given),"inconclusive: 29.1 µM [inhibitor, single point]"
6,Cn1nc(C(=O)Nc2ccccc2)c2c1-c1ccccc1S(=O)(=O)C2,inactive
7,COc1ccc(N2CCN(C(=O)c3ccc(Br)cc3)CC2)c([N+](=O)[O-])c1,"inconclusive: 29.1 µM [inhibitor, single point]"
8,CC(C)COC(=O)Nc1nnc(Cc2ccccc2)s1,inactive
9,N=c1n(CCN2CCCC2)c2ccccc2n1CC(O)c1ccc(Cl)c(Cl)c1 (stereo not given),"inconclusive: 29.1 µM [inhibitor, single point]"
10,CCN1CCN(c2nc3ccccc3nc2C(C#N)S(=O)(=O)c2ccc(C)c(C)c2)CC1 (stereo not given),inactive
11,Cc1ccc(-n2cnnn2)cc1Cl,inactive
12,CCOCCCn1c(NN)nc2ccccc2c1=O,"inconclusive: 20.6 µM [inhibitor, single point]"
13,O=C(CSc1nc2ncccc2[nH]1)NC1CCCCC1,"inconclusive: 20.6 µM [activator, single point]"
14,COc1ccc(OC)c(-c2cc(C(=O)N3CCN(c4ncccn4)CC3)c3ccccc3n2)c1,active: 13 µM
15,CCNS(=O)(=O)c1ccc(NC(=O)c2ccc(Cn3cc(Br)cn3)o2)cc1,"inconclusive: 29.1 µM [inhibitor, single point]"
16,CCN1CCN(CC(=O)Nc2ccc(C(C)=O)cc2)CC1,inactive
17,COc1ccc(CNC(=O)CCSCc2ccccc2Cl)c(OC)c1,inactive
18,Cc1ccc(CCN2CC(C(=O)NCCN(C)C)CC2=O)cc1 (stereo not given),inactive
19,CN(c1ccccc1)S(=O)(=O)c1cccc(NC(=O)Cn2cnc3ccccc3c2=O)c1,"inconclusive: 29.1 µM [inhibitor, single point]"
20,CNc1ccc(/C=C2\CSc3ccccc3C2=O)cc1[N+](=O)[O-],"inconclusive: 3.26 µM [activator, partial curve, poor fit]"
21,CCC1(c2ccc(Cl)cc2)NC(=S)N(c2ccc(C)cc2)N1 (stereo not given),"inconclusive: 20.6 µM [activator, partial curve]"
22,COc1ccc([C@H]2Cc3cccc(O)c3C(=O)O2)cc1O,inactive
23,CCC(=O)Nc1cc(C(F)(F)F)ccc1N1CCOCC1,inactive
24,CCOc1ccc(NC(=O)CN(C)C(=O)c2cn(-c3ccc(F)cc3)nc2-c2cccc(OC)c2)cc1OCC,active: 9.2 µM
25,CC1=CCC2C(=O)N(c3cc(C)on3)C(=O)C2C1 (stereo not given),"inconclusive: 29.1 µM [activator, single point]"

row,SMILES,Potency
1,Cc1cc(C)c(C)c(S(=O)(=O)N2CCC(C(=O)Nc3ccccc3N3CCOCC3)CC2)c1C,"inconclusive: 16.4 µM [inhibitor, partial curve]"
2,NC(=O)COC(=O)c1ccc(Cl)c(S(=O)(=O)N2CCN(c3ccc(F)cc3)CC2)c1,"inconclusive: 20.6 µM [inhibitor, single point]"
3,O=C(c1ccc2c3n(nc2c1)-c1ccccc1CO3)N1CCOCC1,"inconclusive: 2.31 µM [activator, partial curve]"
4,Fc1c(CSC(=S)N2CCOCC2)cccc1CSC(=S)N1CCOCC1,active: 23.1 µM
5,O=C(Nc1ccccc1)c1cccc(Cn2cc(C(F)(F)F)ccc2=O)c1,inactive
6,Cc1cnc(NC(=O)CCCSc2nc3ccccc3s2)s1,"inconclusive: 29.1 µM [activator, single point]"
7,Cc1cccc(C)c1OCc1nc2ccccc2c(=O)n1/N=C/c1c[nH]c2ccccc12,active: 8.2 µM
8,COc1ccc([N+](=O)[O-])cc1NC(=O)C(C)OC(=O)Cn1[nH]c(=O)c2ccccc2c1=O (stereo not given),inactive
9,CCOC(=O)c1cnc(-n2nc(C)cc2C)nc1NNc1cc(C)nc(-c2ccccc2)n1,"inconclusive: 5.17 µM [inhibitor, partial curve]"
10,Cc1ccc(NC(=O)c2cccc(S(C)(=O)=O)c2)cc1,"inconclusive: 14.6 µM [activator, partial curve]"
11,C=CCN(CC=C)C(=O)C1CC(=O)N(c2ccc(Br)cc2)C1 (stereo not given),"inconclusive: 1.16 µM [activator, single point]"
12,CCOC(=O)c1oc2ccccc2c1NC(=O)CCl,"inconclusive: 14.6 µM [activator, single point]"
13,O=C(Nc1ccc2c(c1)OCO2)Nc1ccccc1F,"inconclusive: 3.66 µM [activator, partial curve]"
14,COc1ccc(C(c2c(C)n(C)n(-c3ccccc3)c2=O)c2c(C)n(C)n(-c3ccccc3)c2=O)c(OC)c1OC,inactive
15,Cc1cc(Br)ccc1NC(=O)CNC(=O)CN(C)Cc1nc2ccccc2c(=O)[nH]1,inactive
16,COc1ccccc1Cn1[nH]nnc1=S,inactive
17,CC(C)(C)OC(=O)N/N=C/c1cc(N=Nc2ccccc2)ccc1O,"inconclusive: 13 µM [inhibitor, partial curve, poor fit]"
18,O=C(CCN1C(=O)/C(=C/c2ccco2)SC1=S)Nc1ccc(C(=O)O)c(O)c1,inactive
19,O=C(Nc1cccnc1)Nc1cc(Cl)cc(Cl)c1,inactive
20,CCc1ccc(CN2C(=O)c3ccccc3C2C(=O)NCc2cccnc2)cc1 (stereo not given),inactive
21,Cc1ccc(C)c(NC(=O)CCN2CCN(c3ccccc3F)CC2)c1,inactive
22,Cc1nc(N2CCN(S(=O)(=O)c3ccc(Br)cc3)CC2)c2c(C)c(C)sc2n1,"inconclusive: 20.6 µM [inhibitor, single point]"
23,CCCCCc1ccc(-c2ccc(OCC)cc2)nc1,"inconclusive: 18.3 µM [activator, partial curve]"
24,COc1ccc(Br)cc1C(=O)Nc1ccc(NC(=O)c2ccco2)cc1,"inconclusive: 29.1 µM [activator, single point]"
25,O=C(Nc1nnc(S(=O)(=O)N2CCCC2)s1)c1ccccc1Cl,inactive

row,SMILES,Potency
1,COc1cc(C2Oc3cc(C4Oc5cc(O)cc(O)c5C(=O)C4O)ccc3OC2CO)ccc1O (stereo not given),inactive
2,O=C(CCCc1nc2ccccc2s1)N1CCN(S(=O)(=O)c2cccs2)CC1,"inconclusive: 2.91 µM [inhibitor, partial curve, poor fit]"
3,COc1cc(/C=N/N2CCN(C3c4ccccc4-c4ccccc43)CC2)ccc1O,"inconclusive: 14.6 µM [inhibitor, partial curve, poor fit]"
4,COc1ccccc1Nc1nc2ccccc2n1C,"inconclusive: 16.4 µM [activator, partial curve]"
5,Cc1cccc(-n2nc3c(c2NC(=O)C2CC2)CS(=O)(=O)C3)c1C,inactive
6,CCOC(=O)c1ccc(NC(=O)CCc2nc(-c3ccc(Cl)cc3)no2)cc1,"inconclusive: 2.24 µM [inhibitor, single point]"
7,Cc1cccc(CCN2C(N(C)C)=NC[C@@H]2Cc2ccccc2)c1,"inconclusive: 6.51 µM [inhibitor, single point]"
8,CN1CCN(CCCNCc2cn(CCC#N)c3ccccc23)CC1,inactive
9,NC(=O)C1CCN(C(=O)OCc2ccccc2)CC1,"inconclusive: 23.1 µM [activator, partial curve, poor fit]"
10,CCc1nc(N)c(C#N)c(-c2cccc3ccccc23)c1C,inactive
11,CCN(CC)C(=O)CSc1ncnc2sc(C)c(C)c12,"inconclusive: 29.1 µM [inhibitor, single point]"
12,CN1CCc2c(OCC(=O)N3CCC(Cc4ccccc4)CC3)cccc2C1=O,active: 9.2 µM
13,Cc1ccc(NC(=O)CN(C)S(=O)(=O)c2cccc3cccnc23)cc1C,inactive
14,CCOc1ccc(-c2nnn(CC(=O)c3ccc4c(c3)OCCO4)n2)cc1,"inconclusive: 3.55 µM [inhibitor, single point]"
15,CC[n+]1c(C)cc2c(sc3ccccc32)c1C,inactive
16,COc1cccc(Cn2c(=O)ccc3ccccc32)c1,"inconclusive: 8.2 µM [activator, partial curve, poor fit]"
17,COc1cccc(-n2cnc3sc(C)c(C)c3c2=O)c1,"inconclusive: 13 µM [activator, partial curve]"
18,CCOc1ccc(C(=O)NC2=NCCS2)cc1,"inconclusive: 8.2 µM [activator, partial curve]"
19,COc1ccccc1C1=NC(c2ccccc2)CN1c1ccccc1 (stereo not given),inactive
20,O=C(COc1ccc(Br)cc1CO)Nc1ccc(S(=O)(=O)N2CCCC2)cc1,"inconclusive: 25.9 µM [inhibitor, single point]"
21,CCn1c(NC(=O)c2ccc(F)cc2)c2ccccc2nc1=O,"inconclusive: 1.64 µM [activator, full curve, poor fit]"
22,CC(C)(C)c1ccc(C(=O)c2cn[nH]c2-c2ccccc2O)cc1,"inconclusive: 20.6 µM [activator, partial curve]"
23,Cc1cc(NC(=O)c2cc(-c3ccccc3C)nc3ccccc23)no1,inactive
24,COc1cc(-c2nc3cnccn3c2Nc2ccc3c(c2)OCCO3)ccc1O,inactive
25,COc1ccc(/C=C/C(=O)Oc2cccc(/C=N/NC(=O)COc3c(C)cccc3C)c2)cc1,"inconclusive: 12.6 µM [activator, partial curve, poor fit]"

# Among those listed so far, these contain a CF3 group:
row,SMILES,Potency
23,CCC(=O)Nc1cc(C(F)(F)F)ccc1N1CCOCC1,inactive
5,O=C(Nc1ccccc1)c1cccc(Cn2cc(C(F)(F)F)ccc2=O)c1,inactive
